Results are given in words; binding and its absence hold for the method and conditions named. In cells and extracts the contact can be indirect. For some of these results: Binding calls can cover weak binding; strength is not graded here.

The chains behind the UniProt entries cited, without tags or fusion partners. Where a name states a change or a piece, a line headed by the entry shows the natural chain unless it says otherwise.
UniProt P70324: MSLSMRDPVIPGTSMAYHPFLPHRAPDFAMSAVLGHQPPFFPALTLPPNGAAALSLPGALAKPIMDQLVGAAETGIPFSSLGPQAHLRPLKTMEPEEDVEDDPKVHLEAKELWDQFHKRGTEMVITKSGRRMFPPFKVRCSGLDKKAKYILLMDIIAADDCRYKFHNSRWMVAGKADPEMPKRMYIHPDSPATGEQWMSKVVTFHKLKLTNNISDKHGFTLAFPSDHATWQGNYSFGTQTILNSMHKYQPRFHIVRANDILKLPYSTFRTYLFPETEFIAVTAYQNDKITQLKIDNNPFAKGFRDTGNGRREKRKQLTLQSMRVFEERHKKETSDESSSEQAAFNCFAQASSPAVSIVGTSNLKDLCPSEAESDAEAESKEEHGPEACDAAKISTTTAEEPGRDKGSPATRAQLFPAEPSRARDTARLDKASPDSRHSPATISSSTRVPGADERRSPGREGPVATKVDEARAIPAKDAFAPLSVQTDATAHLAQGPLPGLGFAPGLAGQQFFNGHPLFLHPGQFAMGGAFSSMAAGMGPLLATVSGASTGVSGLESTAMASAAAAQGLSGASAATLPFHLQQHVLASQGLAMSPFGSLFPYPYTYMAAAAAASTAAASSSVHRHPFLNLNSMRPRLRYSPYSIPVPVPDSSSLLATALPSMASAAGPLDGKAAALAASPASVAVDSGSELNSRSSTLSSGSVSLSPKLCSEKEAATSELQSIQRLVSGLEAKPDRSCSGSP
UniProt Q92841: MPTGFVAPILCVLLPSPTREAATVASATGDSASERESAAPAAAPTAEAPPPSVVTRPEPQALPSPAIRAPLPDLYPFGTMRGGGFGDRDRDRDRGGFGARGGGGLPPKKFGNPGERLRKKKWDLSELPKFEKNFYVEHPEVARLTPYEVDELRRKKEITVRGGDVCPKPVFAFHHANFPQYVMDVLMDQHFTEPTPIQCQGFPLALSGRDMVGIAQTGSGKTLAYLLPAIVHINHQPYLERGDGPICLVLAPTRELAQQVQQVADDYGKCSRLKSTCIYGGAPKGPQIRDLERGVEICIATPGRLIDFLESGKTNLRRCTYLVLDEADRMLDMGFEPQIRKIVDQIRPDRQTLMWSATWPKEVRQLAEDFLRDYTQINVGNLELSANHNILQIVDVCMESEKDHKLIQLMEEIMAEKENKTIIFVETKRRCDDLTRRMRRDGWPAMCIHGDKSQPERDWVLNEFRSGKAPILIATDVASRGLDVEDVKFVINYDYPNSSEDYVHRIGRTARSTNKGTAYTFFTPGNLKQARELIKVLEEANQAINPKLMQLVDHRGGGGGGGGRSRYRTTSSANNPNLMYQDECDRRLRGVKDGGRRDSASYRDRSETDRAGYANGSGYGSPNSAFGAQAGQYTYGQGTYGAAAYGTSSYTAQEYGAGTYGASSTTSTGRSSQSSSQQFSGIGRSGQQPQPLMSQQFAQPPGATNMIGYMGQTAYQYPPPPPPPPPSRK
UniProt O00571: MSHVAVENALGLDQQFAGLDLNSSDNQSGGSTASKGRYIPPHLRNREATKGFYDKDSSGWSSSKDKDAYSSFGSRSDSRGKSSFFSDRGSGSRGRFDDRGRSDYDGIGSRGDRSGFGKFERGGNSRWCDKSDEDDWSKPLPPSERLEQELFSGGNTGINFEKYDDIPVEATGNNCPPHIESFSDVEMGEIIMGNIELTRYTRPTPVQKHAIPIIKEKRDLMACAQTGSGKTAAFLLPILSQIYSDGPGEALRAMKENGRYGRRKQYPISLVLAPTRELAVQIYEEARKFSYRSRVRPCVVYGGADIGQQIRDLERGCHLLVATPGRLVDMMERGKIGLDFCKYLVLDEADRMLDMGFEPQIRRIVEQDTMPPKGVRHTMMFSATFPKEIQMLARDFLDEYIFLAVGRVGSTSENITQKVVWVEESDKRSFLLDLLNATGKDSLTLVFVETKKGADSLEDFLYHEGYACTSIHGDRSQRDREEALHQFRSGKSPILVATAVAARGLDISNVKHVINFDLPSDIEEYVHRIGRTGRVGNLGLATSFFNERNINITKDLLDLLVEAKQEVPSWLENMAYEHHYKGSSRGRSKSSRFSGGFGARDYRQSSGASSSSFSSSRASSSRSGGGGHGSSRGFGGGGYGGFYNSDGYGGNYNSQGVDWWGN

Targets include Tbx3 L143P (mouse) (UniProt P70324); Tbx3 N277D (mouse) (UniProt P70324); Tbx3+2a (mouse) (UniProt P70324); Tbx3ΔNLS (mouse) (UniProt P70324); Tbx3ΔRD1 (mouse) (UniProt P70324).
Test in all cases: co-IP; HEK293 cells with stable retroviral shRNA knockdown of endogenous TBX3, transfected with wild type or mutant Tbx3; Tbx3 IP, immunoblot for endogenous DDX3, hnRNP C, DDX17

In the case of “Probable ATP-dependent RNA helicase DDX17 (from UniProt Q92841 1-729)”, the binding entry with Tbx3 L143P (mouse) and with Tbx3 N277D (mouse) was “binds” each time.
For “ATP-dependent RNA helicase DDX3X (from UniProt O00571 1-662)”, the binding entry with Tbx3 L143P (mouse) is on record as “no binding”; with Tbx3 N277D (mouse), “no binding”; with Tbx3+2a (mouse), “binds”; in the experiment with Tbx3ΔNLS (mouse) it was “no binding”; with Tbx3ΔRD1 (mouse) it was “no binding”.

(Values after paper PMC3967948.)
